Patent US20220033816A1
Results are given in words; binding and its absence hold for the method and conditions named. In cells and extracts the contact can be indirect. Some entries that bind do so weakly or less than the wild type.

Chains of the proteins cited; added tags and fusions are not shown. Residues count along the entry.
UniProt Q15078, residues 2-307: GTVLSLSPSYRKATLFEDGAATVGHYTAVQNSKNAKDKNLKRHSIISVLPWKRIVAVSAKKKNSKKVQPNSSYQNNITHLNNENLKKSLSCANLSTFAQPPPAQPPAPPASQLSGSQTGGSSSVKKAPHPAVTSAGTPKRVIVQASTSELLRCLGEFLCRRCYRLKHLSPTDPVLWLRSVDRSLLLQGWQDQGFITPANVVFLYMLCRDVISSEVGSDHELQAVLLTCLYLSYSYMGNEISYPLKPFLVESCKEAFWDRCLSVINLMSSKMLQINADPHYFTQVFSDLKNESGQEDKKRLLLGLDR

Biological target: cyclin-dependent kinase 5 (CDK5) (UniProt Q00535)
Assay: co-immunoprecipitation (CO-IP) and Western blot from SH-SY5Y cells overexpressing a p35 plasmid

binding: binds
Substance: p35 (CDK 5 regulatory subunit 1) (from UniProt Q15078 2-307)
